Residue numbers refer to the chain shown, from its start. These are yes or no findings as the source states them, for the method shown. For some of these results: In cells and extracts the contact can be indirect. For some of these results: Sequences can lack the tags named with a protein. Each block holds one molecule with its values, some of them ahead of it.
Tests used:
[1] = target: T1, MsyB (Escherichia coli protein MsyB) (E. coli) (UniProt P25738); test: NMR titration
T1 sequence: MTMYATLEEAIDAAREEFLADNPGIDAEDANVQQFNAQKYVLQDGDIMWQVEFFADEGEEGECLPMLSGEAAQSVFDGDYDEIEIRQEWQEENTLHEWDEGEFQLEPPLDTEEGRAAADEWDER

[2] = target: T2, MsyB^1-103 (E. coli) (UniProt P25738); test: NMR titration
T2 sequence: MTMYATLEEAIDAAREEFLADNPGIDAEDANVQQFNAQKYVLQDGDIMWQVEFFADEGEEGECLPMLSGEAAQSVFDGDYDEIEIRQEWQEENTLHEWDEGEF

[3] = target: T3, MsyB with Q104 L105 mutated to AA (E. coli) (UniProt P25738); test: NMR titration
T3 sequence: T1 sequence with Q104A, L105A

[4] = target: T4, MsyB-His (MsyB with a C-terminal polyhistidine tag, SUMO removed) (E. coli) (UniProt P25738); test: pull-down
T4 sequence: T1 sequence

binding [1]: no binding
Molecule: clamp^M362A, P363A (from UniProt P0A988 1-366)

binding [2]: no binding
binding [3]: no binding
Molecule: β-clamp (β subunit of DNA polymerase) (from UniProt P0A988 1-366)

binding [4]: no binding
B1: Glutamine--fructose-6-phosphate aminotransferase (GlmS) (enzyme, UniProt P17169 1-609)
chain: MCGIVGAIAQRDVAEILLEGLRRLEYRGYDSAGLAVVDAEGHMTRLRRLGKVQMLAQAAEEHPLHGGTGIAHTRWATHGEPSEVNAHPHVSEHIVVVHNGIIENHEPLREELKARGYTFVSETDTEVIAHLVNWELKQGGTLREAVLRAIPQLRGAYGTVIMDSRHPDTLLAARSGSPLVIGLGMGENFIASDQLALLPVTRRFIFLEEGDIAEITRRSVNIFDKTGAEVKRQDIESNLQYDAGDKGIYRHYMQKEIYEQPNAIKNTLTGRISHGQVDLSELGPNADELLSKVEHIQILACGTSYNSGMVSRYWFESLAGIPCDVEIASEFRYRKSAVRRNSLMITLSQSGETADTLAGLRLSKELGYLGSLAICNVPGSSLVRESDLALMTNAGTEIGVASTKAFTTQLTVLLMLVAKLSRLKGLDASIEHDIVHGLQALPSRIEQMLSQDKRIEALAEDFSDKHHALFLGRGDQYPIALEGALKLKEISYIHAEAYAAGELKHGPLALIDADMPVIVVAPNNELLEKLKSNIEEVRARGGQLYVFADQDAGFVSSDNMHIIEMPHVEEVIAPIFYTVPLQLLAYHVALIKGTDVDQPRNLAKSVTVE

Source: paper doi:10.1101/2025.02.25.640118 (bioRxiv, 2025)
